{"source": "patent US20210268122A1", "about": "“INHIBITION OF S[…] PROTEIN INHIBITORS OF CYSTEINE PROTEASES” (DYVE BIOSCIENCES, INC., priority 2017, published 2021)", "system": "LL/2 cells", "settings": "SCID-beige mice, topical 100 μL×3 daily", "method": "In vivo tests were performed as follows: SCID-beige mice aged 6 weeks were injected intravenously with 1×10^6 LL/2 cells.\nThe treatment groups were:\nGroup A (Negative Control): Untreated\nVolumes of primary tumors were measured twice weekly."}
{"compound": "CC(C)C[C@H](NC(=O)[C@H]1O[C@@H]1C(=O)O)C(=O)NCCCCN=C(N)N", "note": "(relative stereo) [Group E-64, L-trans-Epoxysuccinyl-leucylamido (4-guanidino) butane]", "values": [{"measurement": "survival compared to both the negative and positive control groups", "value": "better survival"}]}
